Laboratory results from patent US20100197608A1, “USE OF MELANOTROPHIN-POTENTIATING FACTOR AS A THERAPEUTIC AGENT” (priority 2007, published 2010).
Part of at least one peptide drawing is inferred or uncertain, most often the ends. Where a SMILES comes first, the peptide text is derived from it.

Assays:
[1] = system: HUVEC; assay: Endothelial tube formation assay; assay type: cell-based, human; settings: peptide 10 micrograms per ml, 20 hours
[2] = system: A549 cells; assay: Apoptosis induction assay (Annexin-5); assay type: cell-based, human; settings: 24 hours, peptide 10 micrograms per ml
[3] = system: TNF alpha production by LPS-stimulated macrophages from PBMC; assay: TNF alpha production assay; assay type: cell-based, human; settings: TNF alpha ELISA; peptide 10 micrograms per ml; LPS 200 ng/ml; overnight
[4] = system: HCMV strain AD169; assay: HCMV plaque reduction assay in MRC-5 cells; settings: HCMV in MRC-5 cells; peptide 10 micrograms per ml; 7-10 days
[5] = system: Human Peripheral Blood Mononuclear Cells (PBMC), T cell proliferation; assay: T cell proliferation assay (PHA, 3H-thymidine); assay type: cell-based; settings: peptide 10 micrograms per ml, 3 days
[6] = system: RAW 264.7 cells; assay: Phagocytosis assay; assay type: cell-based, mouse; settings: Fluorescein-labeled Escherichia coli, peptide 10 micrograms per ml
[7] = system: A549 cells; assay: Propidium iodide cell cycle assay; assay type: cell-based, human; settings: 24 hours, peptide 10 micrograms per ml
[8] = system: Human Peripheral Blood Mononuclear Cells (PBMC), B cell proliferation; assay: B cell proliferation assay (SAC plus IL-2, 3H-thymidine); assay type: cell-based; settings: peptide 10 micrograms per ml, 3 days
[9] = system: Primary Human endothelial cells (HUVEC); assay: Endothelial cell migration assay; assay type: cell-based; settings: peptide 10 micrograms per ml, 22 hours
[10] = system: HIV-1IIIB; assay: HIV-1 antiviral assay (CPE reduction) in CEM-SS cells; assay type: cell-based; settings: peptide 10 micrograms per ml; 6 days post-infection; MTS
[11] = system: hepatitis B virus (HBV) ayw strain in HepG2-2.2.15 cells; assay: HBV experimental assay system (secreted HBV DNA, TaqMan PCR); assay type: cell-based; settings: peptide 10 micrograms per ml; six days; HBV DNA in supernatant
[12] = system: A549 cells; assay: Apoptosis prevention assay (C2 ceramide, Annexin-5); assay type: cell-based, human; settings: 30 min pretreatment, peptide 10 micrograms per ml
[13] = system: spleen cells of Ovalbumin-immunized Balb/c mice; assay: Th1/Th2 cytokine profiling assay; assay type: cell-based, mouse; settings: peptide 10 micrograms per ml; Ovalbumin restimulation; 72 hours

NCCCC[C@H](NC(=O)[C@@H](N)CCCCN)C(=O)NCC(=O)N[C@@H](CCC(=O)O)C(=O)O [MPF, Lys-Lys-Gly-Glu-OH] (H-KKGE-OH)
% inhibition of tube formation [1]: 21%
% of induction [2]: 1.0%
% of LPS induction [3]: 79.8%
% plaque reduction [4]: 4.4%
% of PHA induced control [5]: 89.1%
% of control phagocytosis [6]: 148.6%
Cell cycle analysis G0/G1 [7]: 55.7
Cell cycle analysis G2/M [7]: 10.2
Cell cycle analysis S [7]: 34.1
% of SAC/IL2 induced control [8]: 82.6%
% inhibition of migration [9]: 8%
% CPE reduction in HIV-1 infected CEM-SS cells [10]: 0.0%
% inhibition of HBV replication in HEP G2 cells [11]: 29.6%
% prevention of ceramide induced apoptosis [12]: 0.0%
IFNγ spleen cells; TH1 response (% of control) [13]: 97.3 % of control
IL-2 spleen cells (% of control) [13]: 126.5 % of control
IL-4 spleen cells; TH2 response (% of control) [13]: 93.2 % of control
IL-5 spleen cells; TH2 response (% of control) [13]: 68.6 % of control
TNF-a spleen cells; TH1 response (% of control) [13]: 114.1 % of control
